We go through two molecules from patent publication US20100210713A1, “REGENERATION AND SURVIVAL OF CARDIAC PROGENITORS AND CARDIOMYOCYTES WITH A STRETCH ACTIVATED TRANSCRIPTION FACTOR” (THE GENERAL HOSPITAL CORPORATION, priority 2009, published 2010).

No constants are given. Whether binding was seen depends on the method and setting. Binding seen in cells or lysates may run through a third protein. Some entries that bind do so weakly or less than the wild type. Sequences can lack the tags named with a protein.

For test [1], the target named is T1, Flag-tagged Creb312(N) (3xFlag-Creb312(N)) (human) (UniProt Q70SY1).
T1 sequence: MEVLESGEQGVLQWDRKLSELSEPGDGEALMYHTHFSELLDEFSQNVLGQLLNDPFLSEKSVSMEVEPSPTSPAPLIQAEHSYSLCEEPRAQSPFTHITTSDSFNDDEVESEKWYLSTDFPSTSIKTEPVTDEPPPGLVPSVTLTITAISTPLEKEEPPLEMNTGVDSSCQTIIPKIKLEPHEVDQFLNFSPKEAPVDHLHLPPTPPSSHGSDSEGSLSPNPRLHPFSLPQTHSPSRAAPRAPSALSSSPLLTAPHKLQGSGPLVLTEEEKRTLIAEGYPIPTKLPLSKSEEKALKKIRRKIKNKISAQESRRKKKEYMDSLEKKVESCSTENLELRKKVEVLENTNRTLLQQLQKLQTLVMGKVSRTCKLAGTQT
Put plainly: co-immunoprecipitation from cotransfected COS7 cells: anti-Flag IP, anti-HA immunoblot.

Test [2] addresses T1, Flag-tagged Creb312(N) (3xFlag-Creb312(N)) (human). Put plainly: co-immunoprecipitation from COS7 cells: anti-Flag IP, anti-HA immunoblot (FIG. 2C).
The target in test [3] is T2, endogenous nuclear form of Creb312 from nuclear extracts of mouse embryonic hearts (mouse) (UniProt Q8BH52).
T2 sequence (looked up): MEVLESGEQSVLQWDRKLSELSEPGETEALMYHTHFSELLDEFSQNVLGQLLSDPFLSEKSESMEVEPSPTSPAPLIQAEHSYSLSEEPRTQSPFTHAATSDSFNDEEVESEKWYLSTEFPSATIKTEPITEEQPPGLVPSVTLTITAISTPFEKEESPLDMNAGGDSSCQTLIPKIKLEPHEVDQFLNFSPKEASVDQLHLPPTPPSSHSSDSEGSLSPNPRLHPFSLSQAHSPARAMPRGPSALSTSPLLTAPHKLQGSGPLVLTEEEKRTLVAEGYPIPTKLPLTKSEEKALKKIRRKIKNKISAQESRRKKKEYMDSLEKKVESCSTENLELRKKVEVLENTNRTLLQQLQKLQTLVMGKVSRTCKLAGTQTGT
Put plainly: co-immunoprecipitation on anti-Flag M2 gel from heart nuclear extract, immunoblot with anti-Creb312.

Test [4] deals with T2, endogenous nuclear form of Creb312 from nuclear extracts of mouse embryonic hearts (mouse). Put plainly: co-immunoprecipitation on anti-Flag M2 gel from heart nuclear extract, immunoblot with anti-Creb312 (FIG. 2D, 2E).

B1: HA-tagged Creb312(N) (protein, not shown: small tags and cut ends)
chain: MEVLESGEQGVLQWDRKLSELSEPGDGEALMYHTHFSELLDEFSQNVLGQLLNDPFLSEKSVSMEVEPSPTSPAPLIQAEHSYSLCEEPRAQSPFTHITTSDSFNDDEVESEKWYLSTDFPSTSIKTEPVTDEPPPGLVPSVTLTITAISTPLEKEEPPLEMNTGVDSSCQTIIPKIKLEPHEVDQFLNFSPKEAPVDHLHLPPTPPSSHGSDSEGSLSPNPRLHPFSLPQTHSPSRAAPRAPSALSSSPLLTAPHKLQGSGPLVLTEEEKRTLIAEGYPIPTKLPLSKSEEKALKKIRRKIKNKISAQESRRKKKEYMDSLEKKVESCSTENLELRKKVEVLENTNRTLLQQLQKLQTLVMGKVSRTCKLAGTQT
In the case of B1, the binding entry in test [1] and in test [2] was “binds” in each case.

B2: Flag-tagged Creb312(N) (3xFlag-Creb312(N)) (protein, not shown: small tags and cut ends)
chain: MEVLESGEQGVLQWDRKLSELSEPGDGEALMYHTHFSELLDEFSQNVLGQLLNDPFLSEKSVSMEVEPSPTSPAPLIQAEHSYSLCEEPRAQSPFTHITTSDSFNDDEVESEKWYLSTDFPSTSIKTEPVTDEPPPGLVPSVTLTITAISTPLEKEEPPLEMNTGVDSSCQTIIPKIKLEPHEVDQFLNFSPKEAPVDHLHLPPTPPSSHGSDSEGSLSPNPRLHPFSLPQTHSPSRAAPRAPSALSSSPLLTAPHKLQGSGPLVLTEEEKRTLIAEGYPIPTKLPLSKSEEKALKKIRRKIKNKISAQESRRKKKEYMDSLEKKVESCSTENLELRKKVEVLENTNRTLLQQLQKLQTLVMGKVSRTCKLAGTQT
On to B2, for which the binding entry in test [3] and in test [4] was “binds” each time.
